We go through nine molecules from US6829540B1, “Drug discovery using multiple membrane mimetic affinities” (priority 1997, dated 2004).

SMILES strings stand for the structures.

Data set [1] is described as follows: Three dimensional pattern matching of membrane binding constants relative to diazepam. To be noted: relative to membrane binding data of diazepam; three dimensional {PC, PE, PS}.
Data set [2] in a line: D^2 and Q classification of membrane binding data against therapeutic class training sets.
Setting [3] is: compared to anticonvulsant class.
[4] abbreviates: compared to antidepressant class.
[5] abbreviates: compared to antihypertensive class.
The mark [6] stands for this setting: compared to antineoplastic class.
The mark [7] stands for this setting: compared to antiparkinson class.
Setting [8] is: compared to antipsychotic class.
Where [9] appears, read: compared to sedative hypnotic class.

Regarding `O=C1CN=C(c2ccccc2)c2cc(Cl)ccc2N1CC1CC1` [prazepam], the angle in data set [1] is 3.16.

`O=C1CN=C(c2ccccc2)c2cc([N+](=O)[O-])ccc2N1` [nitrazepam] returned an angle in data set [1] of 2.45.

Molecule `CC(CN1c2ccccc2Sc2ccccc21)N(C)C` (stereo not shown) [promethazine] had an angle in data set [1] of 1.48.

`CNC1=Nc2ccc(Cl)cc2C(c2ccccc2)=[N+]([O-])C1` [chlorodiazepoxide, chlordiazepoxide] yielded an angle in data set [1] of 1.82.

As for `CN(C)CCCN1c2ccccc2CCc2ccccc21` [imipramine], the angle in data set [1] is 3.44.

With `CN1C(=O)CN=C(c2ccccc2)c2cc(Cl)ccc21` [diazepam], in data set [1], the angle is 0.

Molecule `CCN(CC)C(=O)[C@@H]1C=C2c3cccc4[nH]c(Br)c(c34)C[C@H]2N(C)C1` [2Br-LSD] had an angle in data set [1] of 2.56.

In the case of `CN(C)CCC=C1c2ccccc2C=Cc2ccccc21` [cyclobenzaprine], the angle in data set [1] is given as 3.28.

For `CC(N)Cc1ccc2c(c1)OCO2` (stereo not shown) [MDA, 3,4-methylendioxyamphetamine], the “D^2” value in data set [2] (compared to analgesic class) was determined as 10.6; in data set [2] (compared to anorexic class) it was 9.14; in data set [2] (setting [3]), 52.0; in data set [2] (setting [4]), 24.6; in data set [2] (setting [5]), 4.09; in data set [2] (setting [6]), 0.991. Besides, the “D^2” value is 1.77 in data set [2] (setting [7]); 25.5 in data set [2] (setting [8]); 31.7 in data set [2] (compared to antiviral class); 12.9 in data set [2] (compared to diuretic class); 3.20 in data set [2] (compared to hallucinogen class); 6.38 in data set [2] (compared to nucleoside class). The “D^2” value in data set [2] (setting [9]) worked out at 104. In addition, the Q in data set [2] (compared to analgesic class) is recorded as −5.34; in data set [2] (compared to anorexic class) it was −2.38; in data set [2] (setting [3]), −24.0; in data set [2] (setting [4]), −10.7; in data set [2] (setting [5]), −3.91; in data set [2] (setting [6]), −9.06. Besides, the Q is −2.24 in data set [2] (setting [7]); −11.5 in data set [2] (setting [8]); −13.5 in data set [2] (compared to antiviral class); −7.06 in data set [2] (compared to diuretic class); 5.27 in data set [2] (compared to hallucinogen class); −12.3 in data set [2] (compared to nucleoside class). Also, the Q in data set [2] (setting [9]) was −49.3.
